# Data published in PubChem BioAssay AID504467 (National Center for Advancing Translational Sciences (NCATS), 2011).
# Screen size: about 330,000 compounds; about 7,700 (2.3%) were called active. This list was built around the results that the source calls inconclusive (neither active nor inactive); the mix of calls is not that of the screen. Calls come from the whole dose curve; as a rule, active = well fitted inhibition curve with a large enough effect; inconclusive = small, poorly fitted or top-dose-only effect, or effect the other way; inactive = flat fitted curve, though single readings scatter. Potencies of inconclusive entries are doubtful fits and often do not repeat.
# Experiment: qHTS screen for small molecules that inhibit ELG1-dependent DNA repair in human embryonic kidney (HEK293T) cells expressing luciferase-tagged ELG1; note: nearly all actives have a fitted effect of over 55% in size
# Settings: HEK293T ELG1-luciferase reporter, luminescence, 16 h, DNA damage induced by 5-fluorouridine; series mostly up to 46.1 µM
# Method in brief: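 In this reporter screen, reduction of luminescence relative to DMSO vehicle indicated activity. Compounds and 5-fluorouridine were added together to 2,000 cells per well, incubated for 16 hr at 37 °C, then developed with ONE-Glo.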
# Potency is the fitted concentration of half-maximal effect.
row,Compound,Potency
1,Nc1ccc(S(=O)(=O)Nc2nccc(/C=C/c3ccc([N+](=O)[O-])cc3)n2)cc1,"inconclusive: 16.4 µM [activator, partial curve]"
2,Cc1c(C(=O)N2CCCCC2)oc2ccccc12,"inconclusive: 14.6 µM [activator, partial curve]"
3,COc1ccccc1N1CCN(C(=O)c2cc(-c3ccc(F)cc3)on2)CC1,inactive
4,Cc1ccccc1CSc1nc2c(c(=O)[nH]1)CCCC2,inactive
5,Cc1nc2ccc([N+](=O)[O-])cc2s1,inactive
6,CCC(C(=O)N1CCC(N2CCCCC2)CC1)n1nc(C)c2sc3ccccc3c2c1=O (centres undefined),inactive
7,CN1C(=O)[C@@H]2[C@H](C1=O)[C@@H]1C(=O)Nc3ccccc3C(=O)N1[C@@H]2c1ccc(Br)cc1,"inconclusive: 8.91 µM [activator, single point]"
8,O=S(=O)(c1ccccc1)c1cnc(-c2ccccc2)nc1N1CCCCC1,inactive
9,O=C(CN1CCN(S(=O)(=O)/C=C/c2ccccc2)CC1)Nc1ccccc1N1CCOCC1,"inconclusive: 16.4 µM [inhibitor, partial curve]"
10,CCc1ccc(-c2ccc3nnc(SCC(=O)NCC4CCCO4)n3n2)cc1 (centres undefined),"inconclusive: 32.6 µM [inhibitor, partial curve, poor fit]"
11,CNC(=O)N(C1=NCC(C)(C)S1)c1ccc(F)c(Cl)c1,inactive
12,COc1ccc(-c2nc(S(=O)(=O)c3ccc(C)cc3)c(N3CCCC3)o2)cc1,inactive
13,CCn1cc(C(=O)NN)c(=O)c2cc(F)c(N3CCN(C)CC3)cc21,inactive
14,COc1ccc(NS(=O)(=O)c2cccc(NC(=O)C3=NN(c4ccccc4)C(=O)CC3)c2)cc1,active: 9.2 µM
15,C/C(=C\c1ccccc1)C(=O)Nc1nc2ccc([N+](=O)[O-])cc2s1,"inconclusive: 23.1 µM [activator, partial curve, poor fit]"
16,CCOC(=O)c1ccc(Oc2nc(NC)nc(OC)n2)cc1,"inconclusive: 14.1 µM [activator, partial curve, poor fit]"
17,O=C(O)c1ccccc1SCc1cn2ccccc2n1,"inconclusive: 32.6 µM [activator, partial curve, poor fit]"
18,Cc1ccc(N2CC(O)Cn3c2nc2c3c(=O)[nH]c(=O)n2C)cc1 (centres undefined),inactive
19,COc1cc(C(=O)NCC(=O)OCn2nnc3ccccc3c2=O)cc(OC)c1OC,inactive
20,COc1ccccc1CC(=O)Nc1ccc(-c2noc(COc3cccc(C)c3C)n2)cc1,"inconclusive: 10.3 µM [inhibitor, partial curve, poor fit]"
21,Cc1ccc(-n2ncc3c(NNC(=O)c4ccco4)ncnc32)cc1Cl,"inconclusive: 16.4 µM [activator, partial curve]"
22,CCOC(=O)N1CCN(c2ccc(S(=O)(=O)N3CCC(C)CC3)cc2[N+](=O)[O-])CC1,"inconclusive: 23.1 µM [inhibitor, partial curve, poor fit]"

row,Compound,Potency
1,Cc1ccc(NC(=O)COC(=O)CCc2c[nH]c3ccccc23)c(C)c1,inactive
2,c1ccc2c(c1)nnn1c3ccccc3nc21,"inconclusive: 2.06 µM [activator, partial curve]"
3,C=CCN1CC(=O)N2Cc3[nH]c4ccccc4c3C[C@H]2C1=O,"inconclusive: 16.4 µM [activator, partial curve, poor fit]"
4,CN(C)C(=O)c1ccc2c(c1[N+](=O)[O-])C(=O)c1ccccc1C2=O,"inconclusive: 9.2 µM [activator, partial curve]"
5,CCC(=O)N1CCc2cc(S(=O)(=O)Nc3ccc4c(c3)OCCO4)ccc21,"inconclusive: 11.6 µM [inhibitor, partial curve]"
6,Cc1sc(NC(=O)C2CCCO2)c(C#N)c1C (centres undefined),"inconclusive: 29.1 µM [activator, single point]"
7,COc1ccc(-c2nnc3c4ccccc4c(C)nn23)cc1,"inconclusive: 14.6 µM [activator, partial curve]"
8,OCC1CCCN(C(=S)Nc2ccc(Nc3ccccc3)cc2)C1 (centres undefined),"inconclusive: 5.8 µM [activator, full curve]"
9,COc1ccc(-c2csc(NC(=O)CSc3nnc(Nc4ccccc4C)s3)n2)cc1,"inconclusive: 29.1 µM [activator, single point]"
10,Oc1ccc(Cl)cc1C1=NCCNC(C(F)(F)C(F)F)=C1,"inconclusive: 16.4 µM [inhibitor, partial curve]"
11,O=C(C1CC1)N1CCN(c2ccc([N+](=O)[O-])cc2-n2cccc2)CC1,"inconclusive: 13 µM [inhibitor, partial curve, poor fit]"
12,COc1ccc(NC(=S)N/C(=N/CS(=O)(=O)c2ccccc2)c2ccccc2)cc1,"inconclusive: 2.31 µM [activator, partial curve]"
13,O=C(CC1S/C(=N/N=C/c2cccs2)NC1=O)Nc1ccccc1F (centres undefined),"inconclusive: 29.1 µM [activator, single point]"
14,CSc1nc2ccc(NC(=O)c3ccc(=O)[nH]c3)cc2s1,inactive
15,COc1ccc(NS(=O)(=O)c2ccc(N3CCOCC3)c(NC(=O)c3ccc(F)cc3)c2)cc1,"inconclusive: 32.6 µM [inhibitor, single point]"
16,CC(C)OC(=O)CSc1nnc(C2CCCCC2)n1N,"inconclusive: 7.3 µM [activator, single point]"
17,O=c1cc(O)c2sc3nc(C(F)(F)F)c4c(c3c2[nH]1)CCCCC4,inactive
18,COc1ccc(S(=O)(=O)Nc2ccc3c(c2)CC(=O)N([C@@H](C)CO)C[C@@H](C)[C@@H](CN(C)Cc2ccccc2)O3)cc1,inactive
19,CC(OC(=O)c1ccc(Cl)c(S(=O)(=O)N2CCCC2)c1)C(=O)NC1CCCCC1C (centres undefined),inactive
20,O=C(Nc1ccccc1)/C(=C/c1ccc([N+](=O)[O-])cc1)NC(=O)c1ccccc1,"inconclusive: 29.1 µM [activator, single point]"
21,COc1ccc(Cl)cc1NC(=O)CN(C)C(=O)c1ccc(C)s1,inactive
22,Cc1cccc(-c2nsc(SCC(=O)N3CCCC3)n2)c1,"inconclusive: 10.3 µM [activator, partial curve]"

# Some of these compounds in order of heavy-atom count, descending.
row,Compound,Potency
18,COc1ccc(S(=O)(=O)Nc2ccc3c(c2)CC(=O)N([C@@H](C)CO)C[C@@H](C)[C@@H](CN(C)Cc2ccccc2)O3)cc1,inactive
17,O=c1cc(O)c2sc3nc(C(F)(F)F)c4c(c3c2[nH]1)CCCCC4,inactive
6,Cc1sc(NC(=O)C2CCCO2)c(C#N)c1C (centres undefined),"inconclusive: 29.1 µM [activator, single point]"
